Literature values, collected in patent US20240410013A1, “METHODS AND COMPOSITIONS FOR CLASSIFYING AND TREATING KIDNEY CANCER” (Genentech, Inc., priority 2021, published 2024).
For at least one compound, name, drawing or mass did not settle the structure.

Tests used:
advanced RCC = details: patients with favorable IMDC risk, versus nivolumab plus ipilimumab; cited from earlier work
[1] = tested on: previously untreated advanced renal cell carcinoma; details: patients with PD-L1+ tumors; cited from earlier work

**Q.** What does the source list for CCN(CC)CCNC(=O)c1c(C)[nH]c(/C=C2\C(=O)Nc3ccc(F)cc32)c1C [sunitinib]?
**A.** OS, PFS, and ORR (advanced RCC): numerically superior results; median PFS (mPFS) [1]: 7.7 months
